# Experimental data from the supplement of paper PMC9135407.
# Where “and” joins values, the source holds several entries; their conditions need not be identical. Equal values may be shown once. Where a name gives a salt, the structure may show the parent alone. ± gives the standard deviation of the averaged measurements. The list shows a part of the results. Baselines shift from plate to plate; read single values as rough.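 Culture-activated primary human stellate myofibroblasts, where regained lipid droplets signal inactivation. Value: share of Hoechst-counted cells above a per-plate Bodipy cutoff, in duplicate wells, with DMSO negative and nortriptyline positive controls on each plate. Hits: a control-normalized score above the plate's top-tenth-percentile nortriptyline wells, or one of a plate's three best wells. Final well concentrations are not given.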
# System: primary human hepatic stellate cells (donor 1)
# Assay: percent Bodipy-positive cells; higher = more lipid droplet accumulation
# Details: 48 h
# [1] = library stock concentration: 80 uM
# [2] = library stock concentration: 400 uM
# [3] = library stock concentration: 2 mM
# [4] = library stock concentration: 10 mM
# [5] = library stock concentration: 3.33 mM
# [6] = library stock concentration: 1 mM
smiles,measurement,setting,value
CCn1cc(-c2ccnc3[nH]c(-c4cccc(CN(C)C)c4)cc23)c(-c2ccc(NC(=O)N(C)C)cc2)n1,percent Bodipy-positive cells,[1],10.2 ± 5.6%
same,percent Bodipy-positive cells,[2],28.5 ± 20%
same,percent Bodipy-positive cells,[3],36.7 ± 4.6%
CCCCCCN(CCCCCC)C(=O)Cc1c(-c2ccc(F)cc2)[nH]c2ccccc12,percent Bodipy-positive cells,[4],10.1 ± 0.91%
"CCCCCCN(CCCCCC)C(=O)Cc1c(-c2ccc(F)cc2)[nH]c2ccccc12 [N,N-Dihexyl-2-(4-fluorophenyl)indole-3-acetamide]",percent Bodipy-positive cells,[4],52.4 ± 2.7%
CCN(CC)CCNC(=O)c1ccc(NC(C)=O)cc1 [Acecainide hydrochloride],percent Bodipy-positive cells,library stock concentration: 6.4 mM,10.7 ± 0.52%
CCN(CC)CCNC(=O)c1ccc(NC(C)=O)cc1 [N-Acetylprocainamide hydrochloride],percent Bodipy-positive cells,[4],43.6 ± 3.4%
CCN(CC)CCN(Cc1ccc(-c2ccc(C(F)(F)F)cc2)cc1)C(=O)Cn1c(SCc2ccc(F)cc2)nc(=O)c2c1CCC2,percent Bodipy-positive cells,[5],95.2 ± 4.5%
same,percent Bodipy-positive cells,[4],100%
N#C[C@@H]1CCCN1C(=O)CNC12CC3CC(CC(O)(C3)C1)C2 [Vildagliptin (LAF-237)],percent Bodipy-positive cells,[5],11.2 ± 3.6%
same,percent Bodipy-positive cells,[4],12.9 ± 0.9%
O=C(O)CCCC=CCC1C(O)CC(O)C1C=CC(O)COc1cccc(C(F)(F)F)c1 [15(S)-Fluprostenol],percent Bodipy-positive cells,[6],14 ± 4.5%
CC(C)(CO)[C@@H](O)C(=O)NCCCO [Dexpanthenol],percent Bodipy-positive cells,library stock concentration: 9.7 mM,0.963 ± 0.81%
"COC(=O)c1ccc2c(c1)NC(=O)/C2=C(\Nc1ccc(N(C)C(=O)CN2CCN(C)CC2)cc1)c1ccccc1 [Intedanib  (BIBF 1120, Vargatef) (2 mM)]",percent Bodipy-positive cells,[3],57.4 ± 5.5%
"COC(=O)c1ccc2c(c1)NC(=O)/C2=C(\Nc1ccc(N(C)C(=O)CN2CCN(C)CC2)cc1)c1ccccc1 [Intedanib (BIBF 1120, Vargatef) (0.4 mM)]",percent Bodipy-positive cells,[2],34.3 ± 0.12%
CCOC(=O)[C@H](CCc1ccccc1)N[C@@H](C)C(=O)N1[C@H](C(=O)O)C[C@H]2CCCC[C@@H]21 [Trandolapril],percent Bodipy-positive cells,[4],46% and 22.1%
O=C(O[C@@H]1Cc2c(O)cc(O)cc2O[C@@H]1c1cc(O)c(O)c(O)c1)c1cc(O)c(O)c(O)c1 [(-)-Epigallocatechin Gallate],percent Bodipy-positive cells,[6],8.27 ± 1.8%
O=C(O[C@@H]1Cc2c(O)cc(O)cc2O[C@@H]1c1cc(O)c(O)c(O)c1)c1cc(O)c(O)c(O)c1 [Epigallocatechin gallate],percent Bodipy-positive cells,[1],29.5 ± 1.4%
same,percent Bodipy-positive cells,[2],32.6 ± 1%
same,percent Bodipy-positive cells,[3],39.2 ± 6.8%
same,percent Bodipy-positive cells,[4],9.25% and 29.2%
CC(C)C[C@H](NC(=O)CNC(=O)c1cc(Cl)ccc1Cl)B(O)O,percent Bodipy-positive cells,[5],65.3 ± 13%
same,percent Bodipy-positive cells,[4],76 ± 2.1%
CCCCC[C@H](O)/C=C/[C@H]1C=CC(=O)[C@@H]1C/C=C\CCCC(=O)O [Prostaglandin A2],percent Bodipy-positive cells,[6],12.7% and 15.2%
O=C1NC(=O)/C(=C/c2ccc(-c3ccc(F)cc3O)o2)S1,percent Bodipy-positive cells,[2],25.6 ± 1.6%
same,percent Bodipy-positive cells,[6],6.42 ± 0.65%
same,percent Bodipy-positive cells,[3],43.8 ± 5.1%
same,percent Bodipy-positive cells,[5],20.2 ± 3.2%
CC(C)CCN1c2nc(Nc3cc(F)c(O)c(F)c3)ncc2N(C)C(=O)C1C (stereo unspecified),percent Bodipy-positive cells,[1],9.15 ± 4.9%
same,percent Bodipy-positive cells,[2],7.84% and 10.3%
same,percent Bodipy-positive cells,[3],4.18% and 6.71%
same,percent Bodipy-positive cells,[5],4.2 ± 1.6%
Cc1cnc(Nc2ccc(N3CCN(C)CC3)cc2)nc1Nc1cccc(S(=O)(=O)NC(C)(C)C)c1,percent Bodipy-positive cells,[5],68.9 ± 9.8%
same,percent Bodipy-positive cells,[4],98.483 ± 0.064%
OC[C@@H](O)[C@@H](O)CO,percent Bodipy-positive cells,[4],28.3 ± 1.3%
"CCCn1c(=O)c2[nH]c(-c3ccccc3)nc2n(CCC)c1=O [1,3-Dipropyl-8-phenylxanthine]",percent Bodipy-positive cells,[4],6.98 ± 1.6%
O=C(Nc1cc(C(F)(F)F)cc(C(F)(F)F)c1)c1cc(Cl)ccc1O,percent Bodipy-positive cells,[4],99.11 ± 0.69%
NS(=O)(=O)c1cc2c(cc1Cl)N=C(CSCc1ccccc1)NS2(=O)=O [Benzthiazide],percent Bodipy-positive cells,,9.03 ± 1.3%
same,percent Bodipy-positive cells,[4],11.8 ± 1.6%
"NCCCn1cc(C2=C(c3c[nH]c4ccccc34)C(=O)NC2=O)c2ccccc21 [Bisindolylmaleimide III, Hydrochloride]",percent Bodipy-positive cells,[5],6.59 ± 1.3%
Clc1ccc2c(c1)N=C(N1CCNCC1)c1ccccc1N2 [N-Desmethylclozapine],percent Bodipy-positive cells,[4],52.7 ± 4.1%
CC(=O)OC/C=C(C)/C=C/C=C(C)/C=C/C1=C(C)CCCC1(C)C [Vitamin a (acetate)],percent Bodipy-positive cells,library stock concentration: 6.1 mM,7.99 ± 0.52%
CC(=O)OC/C=C(C)/C=C/C=C(C)/C=C/C1=C(C)CCCC1(C)C [Retinyl acetate],percent Bodipy-positive cells,[4],20.8 ± 4.8%
Cc1ccc(C(=O)Nc2ccc(CN3CCN(C)CC3)c(C(F)(F)F)c2)cc1C#Cc1cnc2cccnn12,percent Bodipy-positive cells,[2],85.51 ± 0.84%
same,percent Bodipy-positive cells,[3],96.02 ± 0.13%
same,percent Bodipy-positive cells,[4],97.94 ± 0.47%
O=C1C(CC[S+]([O-])c2ccccc2)C(=O)N(c2ccccc2)N1c1ccccc1 (stereo unspecified) [Sulfinpyrazone],percent Bodipy-positive cells,,26.5 ± 7%
same,percent Bodipy-positive cells,library stock concentration: 4.9 mM,11.8 ± 3.5%
same,percent Bodipy-positive cells,[4],16% and 32.6%
CCn1c(=O)c(-c2ccc(-c3cncs3)cc2Cl)cc2cnc(Nc3ccc(N4CCN(C)CC4)cc3)nc21,percent Bodipy-positive cells,[1],5.5 ± 0.5%
same,percent Bodipy-positive cells,[2],9.12 ± 0.63%
same,percent Bodipy-positive cells,[3],5.71 ± 1.8%
same,percent Bodipy-positive cells,[4],11.3 ± 6.6%
COc1ccc(CCN(C)CCc2ccc(OC)c(OC)c2)cc1OC [YS-035 hydrochloride],percent Bodipy-positive cells,[4],34.8% and 17.6%
CC(=O)O[C@]1(C(C)=O)CC[C@H]2[C@@H]3C=C(C)C4=CC(=O)CC[C@@H]4[C@H]3CC[C@@]21C [Nomegestrol acetate],percent Bodipy-positive cells,,11.6 ± 0.69%
CC[N+](CC)(CC)CC [Tetraethylammonium chloride],percent Bodipy-positive cells,[4],10.3 ± 2.5%
NC(=O)c1noc([C@H](CCCC2CCCCC2)CC(=O)NO)n1,percent Bodipy-positive cells,[5],7.92 ± 2.8%
same,percent Bodipy-positive cells,[4],13.4 ± 6.9%
CC1(CN2CCC(n3c(=O)[nH]c4ccccc43)CC2)OCc2ccccc2-n2cccc21 (stereo unspecified),percent Bodipy-positive cells,[4],11.3 ± 0.34%
COc1ccc2c(c1)c(CC(=O)Oc1ccc(-c3cc(=S)ss3)cc1)c(C)n2C(=O)c1ccc(Cl)cc1,percent Bodipy-positive cells,[6],14.1 ± 6.6%
CC(C)Oc1cccc(-n2c(CCc3c[nH]c4ccc(Br)cc34)nc3ccccc3c2=O)c1,percent Bodipy-positive cells,[4],4.36 ± 3.4%

# Not a retest: an excerpt of the list.
smiles,measurement,setting,value
O=C(O[C@@H]1Cc2c(O)cc(O)cc2O[C@@H]1c1cc(O)c(O)c(O)c1)c1cc(O)c(O)c(O)c1 [Epigallocatechin gallate],percent Bodipy-positive cells,[2],32.6 ± 1%
same,percent Bodipy-positive cells,[3],39.2 ± 6.8%
same,percent Bodipy-positive cells,[4],9.25% and 29.2%
